Two molecules from paper PMC12876990, “Targeting secreted PLA2 interactions with EGFR and vimentin to arrest prostate tumour growth” (Cell Death & Disease, 2025) can be followed below.

Chains of the proteins cited; added tags and fusions are not shown.
UniProt P08670: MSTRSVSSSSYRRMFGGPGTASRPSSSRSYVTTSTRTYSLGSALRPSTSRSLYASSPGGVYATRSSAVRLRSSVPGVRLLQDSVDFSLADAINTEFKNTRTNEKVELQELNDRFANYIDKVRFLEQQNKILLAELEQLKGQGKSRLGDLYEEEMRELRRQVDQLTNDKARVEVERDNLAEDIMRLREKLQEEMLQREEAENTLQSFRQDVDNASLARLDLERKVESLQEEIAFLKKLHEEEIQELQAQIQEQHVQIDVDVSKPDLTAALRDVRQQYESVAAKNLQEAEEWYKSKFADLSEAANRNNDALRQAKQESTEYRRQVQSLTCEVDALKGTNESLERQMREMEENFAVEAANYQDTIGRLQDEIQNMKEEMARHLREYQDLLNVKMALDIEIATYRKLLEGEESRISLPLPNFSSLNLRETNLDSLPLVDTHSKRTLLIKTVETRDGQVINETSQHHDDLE

No constants are given. Whether binding was seen depends on the method and setting. For some of these results: Binding seen in cells or lysates may run through a third protein. Some binding calls cover weakened binding; strength is not graded here.

The target in test [1] is full-length vimentin (purified) (UniProt P08670). Put plainly: ELISA; in vitro enzyme immunoassay: vimentin fragments (coil 1, coil 2, full length) coated on a 96-well microplate at 15 µg/mL; hGIIA in PBS with 0.1% BSA, 37 °C, 2 h; detected with anti-hGIIA 4A1-alkaline phosphatase; both purified. (In an ELISA, binding on a coated surface is turned into a signal by an enzyme label.)

The target of test [2] is epidermal growth factor receptor (EGFR) (human (endogenous in PC-3)) (UniProt P00533). Put plainly: co-IP; PC-3 cells incubated with hGIIA (2 µg/mL, 2 h), washed, lysed; lysate immunoprecipitated with anti-EGFR beads overnight; hGIIA detected by western blot; only the binder purified. For orientation: In western blotting, separated proteins are transferred to a membrane and probed.

In test [3] the target is endogenous vimentin in LNCaP cells (human (endogenous in LNCaP)) (UniProt P08670). Kind of test: FRET or BRET; FLIM-FRET on fixed, permeabilised LNCaP cells immunostained with anti-vimentin RV202/AF488 (donor) and anti-hGIIA 4A1/AF568 (acceptor); 2-photon excitation 960 nm. For orientation: BRET reads energy transfer from a luciferase to a nearby fluorophore.
For test [4] the target is unchanged. Kind of test: co-IP; LNCaP cell lysate incubated with anti-vimentin antibody beads overnight; vimentin and hGIIA detected by western blot; beads alone as negative control.

B1: secreted phospholipase A2 human group IIA (hGIIA) (enzyme, UniProt P14555 21-144)
chain: NLVNFHRMIKLTTGKEAALSYGFYGCHCGVGGRGSPKDATDRCCVTHDCCYKRLEKRGCGTKFLSYKFSNSGSRITCAKQDSCRSQLCECDKAAATCFARNKTTYNKKYQYYSNKHCRGSTPRC
For the molecule B1, the binding entry in test [1] and in test [2] was “binds” in each case.

B2: endogenous hGIIA in LNCaP cells (enzyme, UniProt P14555 21-144)
chain: NLVNFHRMIKLTTGKEAALSYGFYGCHCGVGGRGSPKDATDRCCVTHDCCYKRLEKRGCGTKFLSYKFSNSGSRITCAKQDSCRSQLCECDKAAATCFARNKTTYNKKYQYYSNKHCRGSTPRC
In the case of B2, the binding entry in test [3] and in test [4] was “binds” each time.
